PubChem BioAssay AID1259424, University of Nebraska Medical Center, 2018
Purpose: 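Seek colon cancer survival genes behaving like KSR1, using a six-gene signature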 (primary screen). System: human HCT116 colon cancer cells. Knock-down reagent: siRNA pool against human genes, 50 nM. Measured: 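Log2 levels of six mRNAs (branched-DNA multiplex), adjusted by two reference genes and the non-targeting median, then scored against the average KSR1 knockdown pattern as Pearson r and euclidean distance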. Scale: mean correlation with KSR1 profile: higher = expression change more like KSR1 knockdown; mean distance from KSR1 profile: higher = expression change less like KSR1 knockdown.
This is an unselected part of about 14,000 deposited reagents. 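Higher correlation or smaller distance means closer resemblance to KSR1 loss; control wells, including KSR1 knockdowns, recur on many plates.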 The numbers tell different reagents against one gene apart. Not all columns of the deposit are shown. Not stated in the record: the time to read-out.

How did the screen score ATP1B4 (ATPase Na+/K+ transporting family member beta 4)?
mean correlation with KSR1 profile: -0.33; mean distance from KSR1 profile: 2.26

For CLCN2 (chloride voltage-gated channel 2), what does the deposit list?
mean correlation with KSR1 profile: -0.099; mean distance from KSR1 profile: 2.39

With NUDT13 (nudix hydrolase 13), how do the results read?
mean correlation with KSR1 profile: -0.502; mean distance from KSR1 profile: 2.98

How did the screen score CPZ (carboxypeptidase Z)?
mean correlation with KSR1 profile: -0.583; mean distance from KSR1 profile: 3.05

Which result is listed for H2AC6 (H2A clustered histone 6)?
mean correlation with KSR1 profile: 0.768; mean distance from KSR1 profile: 0.949

For RNPEPL1 (arginyl aminopeptidase like 1), how do the results read?
mean correlation with KSR1 profile: -0.576; mean distance from KSR1 profile: 1.62

What is on record for PCDHB1 (protocadherin beta 1)?
mean correlation with KSR1 profile: 0.312; mean distance from KSR1 profile: 2.04

For COX14 (cytochrome c oxidase assembly factor COX14), what does the deposit list?
mean correlation with KSR1 profile: 0.191; mean distance from KSR1 profile: 2.31

With ZHX2 (zinc fingers and homeoboxes 2), what does the deposit list?
mean correlation with KSR1 profile: -0.152; mean distance from KSR1 profile: 1.86

With MAP2K4 (mitogen-activated protein kinase kinase 4), how do the results read?
mean correlation with KSR1 profile: 0.659; mean distance from KSR1 profile: 1.21

What did the screen give for RRN3 (RNA polymerase I transcription factor RRN3)?
mean correlation with KSR1 profile: -0.471; mean distance from KSR1 profile: 3.86

With NDUFA9 (NADH:ubiquinone oxidoreductase subunit A9), how do the results read?
mean correlation with KSR1 profile: -0.0787; mean distance from KSR1 profile: 1.63

Which result is listed for PTK7 (protein tyrosine kinase 7 (inactive))?
mean correlation with KSR1 profile: 0.00913; mean distance from KSR1 profile: 3.01

How did the screen score APBB2 (amyloid beta precursor protein binding family B member 2)?
mean correlation with KSR1 profile: -0.0579; mean distance from KSR1 profile: 1.67

For GUCY2C (guanylate cyclase 2C), what does the deposit list?
mean correlation with KSR1 profile: 0.128; mean distance from KSR1 profile: 2.56

With RAMAC (RNA guanine-7 methyltransferase activating subunit), how do the results read?
mean correlation with KSR1 profile: 0.46; mean distance from KSR1 profile: 1.29

How did the screen score BNIP2 (BCL2 interacting protein 2)?
mean correlation with KSR1 profile: 0.0449; mean distance from KSR1 profile: 1.95

Which result is listed for MRPL28 (mitochondrial ribosomal protein L28)?
mean correlation with KSR1 profile: -0.573; mean distance from KSR1 profile: 1.71

With LIFR (LIF receptor subunit alpha), what does the deposit list?
mean correlation with KSR1 profile: 0.116; mean distance from KSR1 profile: 1.14

What is on record for EXOC4 (exocyst complex component 4)?
mean correlation with KSR1 profile: -0.564; mean distance from KSR1 profile: 2.14

With PLA2G2F (phospholipase A2 group IIF), what does the deposit list?
mean correlation with KSR1 profile: -0.102; mean distance from KSR1 profile: 4.03

Which result is listed for AKT1 (AKT serine/threonine kinase 1) #1?
mean correlation with KSR1 profile: 0.0398; mean distance from KSR1 profile: 2.52

For AKT1 (AKT serine/threonine kinase 1) #2, what was measured?
mean correlation with KSR1 profile: 0.307; mean distance from KSR1 profile: 1.92

With PCBP2 (poly(rC) binding protein 2), what was measured?
mean correlation with KSR1 profile: 0.166; mean distance from KSR1 profile: 2.25

Which result is listed for MYOZ1 (myozenin 1)?
mean correlation with KSR1 profile: -0.677; mean distance from KSR1 profile: 3.64

How did the screen score ZNF302 (zinc finger protein 302)?
mean correlation with KSR1 profile: -0.396; mean distance from KSR1 profile: 1.95

What did the screen give for CCR4 (C-C motif chemokine receptor 4)?
mean correlation with KSR1 profile: 0.779; mean distance from KSR1 profile: 1.23

For ABCD4 (ATP binding cassette subfamily D member 4), what was measured?
mean correlation with KSR1 profile: 0.173; mean distance from KSR1 profile: 0.847

A portion of the results above:
MYOZ1 (myozenin 1): mean correlation with KSR1 profile = -0.677; mean distance from KSR1 profile = 3.64
ZNF302 (zinc finger protein 302): mean correlation with KSR1 profile = -0.396; mean distance from KSR1 profile = 1.95
CCR4 (C-C motif chemokine receptor 4): mean correlation with KSR1 profile = 0.779; mean distance from KSR1 profile = 1.23
